The values that follow come from paper PMC3146489.

Chains of the proteins cited; added tags and fusions are not shown.
UniProt P63279: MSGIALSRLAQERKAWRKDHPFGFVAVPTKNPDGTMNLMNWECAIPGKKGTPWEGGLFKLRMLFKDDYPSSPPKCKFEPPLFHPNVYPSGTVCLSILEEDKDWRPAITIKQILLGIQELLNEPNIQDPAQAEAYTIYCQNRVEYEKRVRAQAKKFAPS

This assay concerns the target GST-tagged UBC9 (human) (UniProt P63279). Kind of assay: pull-down; purified His-tagged N- and C-terminal PR-Set7 fragments incubated with GST-UBC9 or GST alone, GST pull-down; Western with His and GST antibodies; both purified.

Results are given in words; binding and its absence hold for the method and conditions named. Some binding calls cover weakened binding; strength is not graded here. Sequences can lack the tags named with a protein.

B1: recombinant His-tagged N-terminal(1-191) fragment of PR-Set7 (domain or fragment, UniProt Q9NQR1-2 1-191)
chain: MARGRKMSKPRAVEAAAAAAAVAATAPGPEMVERRGPGRPRTDGENVFTGQSKIYSYMSPNKCSGMRFPLQEENSVTHHEVKCQGKPLAGIYRKREEKRNAGNAVRSAMKSEEQKIKDARKGPLVPFPNQKSEAAEPPKTPPSSCDSTNAAIAKQALKKPIKGKQAPRKKAQGKTQQNRKLTDFYPVRRSS
For the molecule B1, the binding entry was “binds”.
